According to patent US20090143279A1 (priority 2007, published 2009):
Values joined by “and” are separate entries in the source; they are usually repeats but may differ in a detail not shown here. Equal entries are not always repeated. Where two headings read alike, the source gives them in different places. The name of at least one read-out is uncertain.

Tests used:
[1] = tested on: cellular dehydrogenase activity
reactive oxygen species = type: cell-based, mouse
[2] = tested on: mitochondrial membrane potential; type: cell-based, mouse
[3] = Table 4, C2C12 myotubes, 48 h, composite Z-score
[4] = Table 4, C2C12 myotubes, 48 h, JC-1, composite Z-score

COc1cc(O)c2c(=O)c(O)c(-c3ccc(O)c(O)c3)oc2c1 [rhamnetin, reference compound]
MTT [1, 3]: −0.975 | ROS (reactive oxygen species; [3]): 0.228 | ΔΨm [2, 4]: 0.717 | Viability (C2C12 myotubes; [3]): −1.211

COc1c(-c2coc3cc4c(cc3c2=O)CC(O)C(C)(C)O4)ccc2c1C=CC(C)(C)O2 (centres unmarked) [mundulone, reference compound]
MTT [1, 3]: −2.487 | ROS (reactive oxygen species; [3]): −0.141 | ΔΨm [2, 4]: 3.037 | Viability (C2C12 myotubes; [3]): −1.113

O=c1c(O)c(-c2ccc(O)c(O)c2)oc2cc(O)cc(O)c12 [quercetin, reference compound]
ROS (reactive oxygen species; [3]): 0.374 and 0.615 | Viability (C2C12 myotubes; [3]): 0.816 and 0.686

COc1ccc(-c2c(OC)c3c(OC)c4c(cc3oc2=O)OC(C)(C)C=C4)cc1 [robustic acid methyl ether, reference compound]
MTT [1, 3]: 0.474 | ROS (reactive oxygen species; [3]): 1.431 | ΔΨm [2, 4]: 0.692 | Viability (C2C12 myotubes; [3]): 0.497

COc1ccc(-c2c(O)c3c(OC)c4c(cc3oc2=O)OC(C)(C)CC4)cc1 [dihydrorobustic acid, reference compound]
MTT [1, 3]: −0.780 | ROS (reactive oxygen species; [3]): −0.115 | ΔΨm [2, 4]: 0.000 | Viability (C2C12 myotubes; [3]): −0.721

CN(C)CCN(Cc1cccs1)c1ccccn1 [methapyrilene]
ROS (reactive oxygen species): 0.798 and 1.114

C=C1c2cccc(O)c2C(=O)C2=C(O)[C@]3(O)C(=O)C(C(N)=O)=C(O)[C@@H](N(C)C)[C@@H]3[C@@H](O)[C@H]12 [methacycline, reference compound]
MTT [1]: −0.031 | ROS (reactive oxygen species): 0.261 | ΔΨm [2]: −0.517 | Viability (C2C12 myotubes): 0.323

COc1cc2c(cc1OC)[C@@H]1C(=O)c3ccc4oc(C(C)C)cc4c3O[C@@H]1CO2 [isorotenone, reference compound]
MTT [1, 3]: −4.373 | ROS (reactive oxygen species; [3]): −0.782 | ΔΨm [2, 4]: −1.329 | Viability (C2C12 myotubes; [3]): −1.954

O=C(O)c1cn(C2CC2)c2cc(N3CCNCC3)c(F)cc2c1=O [ciprofloxacin]
ROS (composite Z-score vs DMSO) (reactive oxygen species): 0.368 and 0.564

Oc1cc2c(cc1O)C1c3ccc(O)c(O)c3OCC1(O)C2 (centres unmarked) [haematoxylin, reference compound]
MTT [1, 3]: −1.335 | ROS (reactive oxygen species; [3]): 0.225 | ΔΨm [2, 4]: −1.035 | Viability (C2C12 myotubes; [3]): −1.044

O=c1cc(-c2ccc(O)c(O)c2)oc2cc(O)cc(O)c12 [luteolin, reference compound]
MTT [1, 3]: −0.209 | ROS (reactive oxygen species; [3]): 0.247 | ΔΨm [2, 4]: −1.473 | Viability (C2C12 myotubes; [3]): −0.627

CO[C@@H]1C[C@@H](C[C@H]2CC[C@H](C)[C@H]([C@@H](C)C(=O)O)O2)O[C@]2(O[C@](C)([C@H]3CC[C@@](C)([C@@H]4O[C@@H]([C@H]5O[C@@](O)(CO)[C@H](C)C[C@@H]5C)C[C@@H]4C)O3)C[C@H]2C)[C@@H]1C [nigericin, reference compound]
MTT [1, 3]: −3.329 | ROS (reactive oxygen species; [3]): −3.323 | ΔΨm [2, 4]: 1.324 | Viability (C2C12 myotubes; [3]): −1.744

COc1ccc(CCN(C)CCCC(C#N)(c2ccc(OC)c(OC)c2)C(C)C)cc1OC (centres unmarked) [verapamil]
Viability (composite Z-score) (C2C12 myotubes): 0.905 and 0.686

Clc1ccc(COC(Cn2ccnc2)c2ccc(Cl)cc2Cl)c(Cl)c1 (centres unmarked) [miconazole]
ROS (composite Z-score vs DMSO) (reactive oxygen species): 1.628 and 1.933

COc1cc2c(cc1OC)-c1c(oc3c4c(ccc3c1=O)OC(C(C)C)C4)CO2 (centres unmarked) [dehydrodihydrorotenone, reference compound]
MTT [1, 3]: −3.034 | ROS (reactive oxygen species; [3]): 0.051 | ΔΨm [2, 4]: 0.125 | Viability (C2C12 myotubes; [3]): −0.172

O=c1c(O)c(-c2ccc(O)c(O)c2)oc2cc(O)ccc12 [fisetin, reference compound]
MTT [1, 3]: −0.689 | ROS (reactive oxygen species; [3]): 0.442 | ΔΨm [2, 4]: −0.893 | Viability (C2C12 myotubes; [3]): −0.764

O=C(CCCN1CC=C(n2c(=O)[nH]c3ccccc32)CC1)c1ccc(F)cc1 [droperidol]
ROS (composite Z-score vs DMSO) (reactive oxygen species): 1.371 and 0.927

O=C1C=C2CC3(O)COc4c(ccc(O)c4O)C3=C2C=C1O (centres unmarked) [hematein, reference compound]
MTT [1, 3]: −1.726 | ROS (reactive oxygen species; [3]): 0.835 | ΔΨm [2, 4]: −1.215 | Viability (C2C12 myotubes; [3]): −0.357

CN1CCN(CCCN2c3ccccc3Sc3ccc(Cl)cc32)CC1 [prochlorperazine]
ROS (composite Z-score vs DMSO) (reactive oxygen species): 1.779 and 1.894

CCN(CC)CCOC(=O)C1(C2CCCCC2)CCCCC1 [dicyclomine]
ROS (composite Z-score vs DMSO) (reactive oxygen species): 2.249 and 1.345

Clc1ccccc1C(c1ccccc1)(c1ccccc1)n1ccnc1 [clotrimazole]
ROS (reactive oxygen species): 2.043 | Viability (C2C12 myotubes): 0.128

C[C@]12C=CC(=O)C=C1CC[C@@H]1[C@@H]2[C@@H](O)C[C@@]2(C)[C@H]1CC[C@]2(O)C(=O)CO [prednisolone]
ROS (reactive oxygen species): 0.245

CC(C(=O)O)c1cccc(C(=O)c2ccccc2)c1 (centres unmarked) [ketoprofen]
ROS (reactive oxygen species): 1.026

CN(C)[C@@H]1C(O)=C(C(N)=O)C(=O)[C@@]2(O)C(O)=C3C(=O)c4c(O)cccc4[C@@](C)(O)[C@H]3[C@H](O)[C@@H]12 [oxytetracycline, reference compound]
ROS (reactive oxygen species; [3]): 0.484 and 0.702

CN(C)CCCN1c2ccccc2CCc2ccccc21 [imipramine]
ROS (composite Z-score vs DMSO mock-treated wells) (reactive oxygen species): 0.993 and 0.879

NCCCCCC(=O)O [aminocaproic acid]
Viability (composite Z-score vs DMSO mock-treated wells) (C2C12 myotubes): −0.552

NCCCCCC(=O)O [6-aminocaproic acid]
Viability (composite Z-score vs DMSO mock-treated wells) (C2C12 myotubes): −0.572

Cc1cc(NS(=O)(=O)c2ccc(N)cc2)no1 [sulfamethoxazole]
ROS (reactive oxygen species): 1.190

COc1ccc(OC)c(C(O)CNC(=O)CN)c1 (centres unmarked) [midodrine]
ROS (composite Z-score vs DMSO) (reactive oxygen species): 0.636 and 0.666

CCn1cc(C(=O)O)c(=O)c2cc(F)c(N3CCNC(C)C3)c(F)c21 (centres unmarked) [lomefloxacin]
ROS (composite Z-score vs DMSO) (reactive oxygen species): 0.618 and 0.732

CC1(C)S[C@@H]2[C@H](NC(=O)[C@H](N)c3ccc(O)cc3)C(=O)N2[C@H]1C(=O)O [amoxicillin]
ROS (reactive oxygen species): 1.552

CN(C)c1ccc(O)c2c1C[C@H]1C[C@H]3[C@H](N(C)C)C(O)=C(C(N)=O)C(=O)[C@@]3(O)C(O)=C1C2=O [minocycline, reference compound]
ROS (reactive oxygen species; [3]): 1.514 and 1.108

NCCCC[C@H](N[C@@H](CCc1ccccc1)C(=O)O)C(=O)N1CCC[C@H]1C(=O)O [lisinopril]
ROS (composite Z-score vs DMSO) (reactive oxygen species): 0.395 and 0.590

C[C@H]1c2cccc(O)c2C(=O)C2=C(O)[C@]3(O)C(=O)C(C(N)=O)=C(O)[C@@H](N(C)C)[C@@H]3[C@@H](O)[C@@H]21 [doxycycline, reference compound]
ROS (reactive oxygen species; [3]): 0.943 and 1.003

CC(C)[N+]1(C)[C@@H]2CC[C@H]1C[C@@H](OC(=O)C(CO)c1ccccc1)C2 (some centres unmarked) [ipratropium]
ROS (reactive oxygen species): 0.931

CN[C@H](CC(C)C)C(=O)N[C@H]1C(=O)N[C@@H](CC(N)=O)C(=O)N[C@H]2C(=O)N[C@H]3C(=O)N[C@H](C(=O)N[C@H](C(=O)O)c4cc(O)cc(O)c4-c4cc3ccc4O)[C@H](O)c3ccc(c(Cl)c3)Oc3cc2cc(c3O[C@@H]2O[C@H](CO)[C@@H](O)[C@H](O)[C@H]2O[C@H]2C[C@](C)(N)[C@H](O)[C@H](C)O2)Oc2ccc(cc2Cl)[C@H]1O [vancomycin]
ROS (reactive oxygen species): 1.370 and 0.921

CC1=C(CC(=O)O)c2cc(F)ccc2/C1=C\c1ccc([S+](C)[O-])cc1 (centres unmarked) [sulindac]
Viability (C2C12 myotubes): 0.982

Clc1ccc(COC(Cn2ccnc2)c2ccc(Cl)cc2Cl)cc1 (centres unmarked) [econazole]
ROS (composite Z-score vs DMSO) (reactive oxygen species): 0.970 and 1.668 | Viability (composite Z-score vs DMSO) (C2C12 myotubes): 0.273 and 0.137
